Drawing on paper doi:10.1101/2025.11.09.687409, this text covers binding for one substance.

Where two headings read alike, the source gives them in different places. No constants are given. Whether binding was seen depends on the method and setting. Binding seen in cells or lysates may run through a third protein. A result given as binding can be weak or reduced; the word gives no strength. Where a sequence is shown, tags or fusion partners need not be part of it.

Assay [1] deals with T1, FLAG-SLC25A5 (mitochondrial ADP/ATP translocase) (UniProt P05141).
T1 sequence: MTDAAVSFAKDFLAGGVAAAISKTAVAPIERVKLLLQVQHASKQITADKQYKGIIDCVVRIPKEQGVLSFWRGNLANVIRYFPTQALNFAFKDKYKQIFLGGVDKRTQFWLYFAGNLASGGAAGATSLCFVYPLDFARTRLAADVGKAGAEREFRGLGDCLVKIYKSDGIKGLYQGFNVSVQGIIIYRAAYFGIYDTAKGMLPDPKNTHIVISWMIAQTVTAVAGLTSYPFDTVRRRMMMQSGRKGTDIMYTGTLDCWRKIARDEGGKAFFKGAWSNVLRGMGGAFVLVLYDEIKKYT
The experiment in a line: co-IP.

Assay [2] deals with T1, FLAG-SLC25A5 (mitochondrial ADP/ATP translocase). The experiment in a line: co-IP. This is another data set of the same source.

Consider “GFP-tagged PE18 (BCG effector PE18, encoded by BCG_1820) (Mycobacterium bovis BCG)”, for which the binding entry in assay [1] and in assay [2] was “binds” each time.
